This is one part of the list.

Chains of the proteins cited; added tags and fusions are not shown. Lines headed by an entry give the natural chain unless they say otherwise; changes in a name come on top.
UniProt Q14344, whole entry, looked up: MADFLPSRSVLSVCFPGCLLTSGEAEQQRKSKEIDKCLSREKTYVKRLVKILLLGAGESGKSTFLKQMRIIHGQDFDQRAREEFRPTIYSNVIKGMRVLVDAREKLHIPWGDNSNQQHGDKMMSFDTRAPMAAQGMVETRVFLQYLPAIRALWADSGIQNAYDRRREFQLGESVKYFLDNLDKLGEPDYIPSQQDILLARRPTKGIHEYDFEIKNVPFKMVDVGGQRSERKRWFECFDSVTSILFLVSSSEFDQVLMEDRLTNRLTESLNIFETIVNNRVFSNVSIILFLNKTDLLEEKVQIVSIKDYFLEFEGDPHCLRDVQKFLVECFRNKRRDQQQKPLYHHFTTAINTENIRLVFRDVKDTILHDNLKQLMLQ
UniProt Q8IW92: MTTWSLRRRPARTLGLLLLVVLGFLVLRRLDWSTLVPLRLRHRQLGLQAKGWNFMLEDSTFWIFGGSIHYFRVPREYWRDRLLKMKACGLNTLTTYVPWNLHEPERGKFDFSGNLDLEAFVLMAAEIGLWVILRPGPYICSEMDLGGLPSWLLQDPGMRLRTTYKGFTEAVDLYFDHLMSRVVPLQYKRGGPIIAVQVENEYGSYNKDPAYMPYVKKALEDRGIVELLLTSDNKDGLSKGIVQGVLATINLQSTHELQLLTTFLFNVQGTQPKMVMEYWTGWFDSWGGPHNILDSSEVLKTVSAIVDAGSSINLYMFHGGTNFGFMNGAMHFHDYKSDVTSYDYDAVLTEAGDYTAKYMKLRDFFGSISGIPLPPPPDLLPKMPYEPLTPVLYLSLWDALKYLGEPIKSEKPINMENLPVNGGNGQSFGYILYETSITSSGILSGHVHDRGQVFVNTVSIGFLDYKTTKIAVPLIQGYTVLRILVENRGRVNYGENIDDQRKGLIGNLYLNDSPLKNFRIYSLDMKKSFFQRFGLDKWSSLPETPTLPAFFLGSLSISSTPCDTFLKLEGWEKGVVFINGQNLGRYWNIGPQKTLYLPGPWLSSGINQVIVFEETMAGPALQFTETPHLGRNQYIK
UniProt Q96EK6: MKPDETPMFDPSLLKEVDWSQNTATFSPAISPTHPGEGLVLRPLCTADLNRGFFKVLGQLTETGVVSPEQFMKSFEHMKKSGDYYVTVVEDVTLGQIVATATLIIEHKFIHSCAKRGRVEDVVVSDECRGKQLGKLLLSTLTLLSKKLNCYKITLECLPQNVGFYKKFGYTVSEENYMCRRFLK
UniProt Q9HC44: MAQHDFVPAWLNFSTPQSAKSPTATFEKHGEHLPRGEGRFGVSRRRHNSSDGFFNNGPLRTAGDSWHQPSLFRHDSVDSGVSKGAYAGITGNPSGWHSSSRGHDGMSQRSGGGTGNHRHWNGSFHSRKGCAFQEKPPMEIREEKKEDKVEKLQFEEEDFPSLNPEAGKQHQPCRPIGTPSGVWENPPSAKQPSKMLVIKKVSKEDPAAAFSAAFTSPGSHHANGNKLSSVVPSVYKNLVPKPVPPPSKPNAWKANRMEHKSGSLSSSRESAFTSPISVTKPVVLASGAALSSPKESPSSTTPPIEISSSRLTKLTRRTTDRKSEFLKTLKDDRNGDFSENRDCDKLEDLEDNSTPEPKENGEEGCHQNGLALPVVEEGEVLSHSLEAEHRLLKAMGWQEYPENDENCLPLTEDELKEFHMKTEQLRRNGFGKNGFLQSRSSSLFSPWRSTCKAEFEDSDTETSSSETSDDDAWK
UniProt Q96IJ6: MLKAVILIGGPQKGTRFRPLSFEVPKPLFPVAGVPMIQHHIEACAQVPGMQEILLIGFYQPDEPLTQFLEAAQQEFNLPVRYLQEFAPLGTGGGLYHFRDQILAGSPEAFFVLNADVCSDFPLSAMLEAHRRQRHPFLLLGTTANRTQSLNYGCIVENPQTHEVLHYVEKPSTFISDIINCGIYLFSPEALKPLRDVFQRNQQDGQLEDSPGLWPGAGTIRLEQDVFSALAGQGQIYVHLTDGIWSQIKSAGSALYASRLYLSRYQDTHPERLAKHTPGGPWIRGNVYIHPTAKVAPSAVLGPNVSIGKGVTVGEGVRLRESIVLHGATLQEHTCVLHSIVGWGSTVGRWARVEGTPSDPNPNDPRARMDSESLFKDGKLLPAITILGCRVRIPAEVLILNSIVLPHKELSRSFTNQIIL
UniProt Q8TBA6: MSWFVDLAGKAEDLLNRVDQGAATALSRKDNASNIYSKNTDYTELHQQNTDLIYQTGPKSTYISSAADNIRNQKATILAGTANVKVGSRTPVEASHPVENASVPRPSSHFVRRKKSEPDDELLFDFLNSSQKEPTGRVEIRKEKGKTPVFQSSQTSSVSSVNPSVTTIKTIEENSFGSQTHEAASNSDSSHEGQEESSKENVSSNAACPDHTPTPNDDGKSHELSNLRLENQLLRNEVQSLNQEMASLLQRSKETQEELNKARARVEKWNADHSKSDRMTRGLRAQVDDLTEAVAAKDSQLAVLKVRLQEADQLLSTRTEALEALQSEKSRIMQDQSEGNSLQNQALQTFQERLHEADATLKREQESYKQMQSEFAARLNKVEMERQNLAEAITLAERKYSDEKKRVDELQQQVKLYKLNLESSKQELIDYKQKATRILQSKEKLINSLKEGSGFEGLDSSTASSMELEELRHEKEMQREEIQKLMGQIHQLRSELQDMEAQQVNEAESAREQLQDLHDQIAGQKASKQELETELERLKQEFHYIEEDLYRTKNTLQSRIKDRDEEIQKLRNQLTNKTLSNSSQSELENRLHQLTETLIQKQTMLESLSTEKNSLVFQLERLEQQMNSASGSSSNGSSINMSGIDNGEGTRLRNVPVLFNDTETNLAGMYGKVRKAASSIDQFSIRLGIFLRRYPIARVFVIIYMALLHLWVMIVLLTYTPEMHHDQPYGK
UniProt Q5VW38: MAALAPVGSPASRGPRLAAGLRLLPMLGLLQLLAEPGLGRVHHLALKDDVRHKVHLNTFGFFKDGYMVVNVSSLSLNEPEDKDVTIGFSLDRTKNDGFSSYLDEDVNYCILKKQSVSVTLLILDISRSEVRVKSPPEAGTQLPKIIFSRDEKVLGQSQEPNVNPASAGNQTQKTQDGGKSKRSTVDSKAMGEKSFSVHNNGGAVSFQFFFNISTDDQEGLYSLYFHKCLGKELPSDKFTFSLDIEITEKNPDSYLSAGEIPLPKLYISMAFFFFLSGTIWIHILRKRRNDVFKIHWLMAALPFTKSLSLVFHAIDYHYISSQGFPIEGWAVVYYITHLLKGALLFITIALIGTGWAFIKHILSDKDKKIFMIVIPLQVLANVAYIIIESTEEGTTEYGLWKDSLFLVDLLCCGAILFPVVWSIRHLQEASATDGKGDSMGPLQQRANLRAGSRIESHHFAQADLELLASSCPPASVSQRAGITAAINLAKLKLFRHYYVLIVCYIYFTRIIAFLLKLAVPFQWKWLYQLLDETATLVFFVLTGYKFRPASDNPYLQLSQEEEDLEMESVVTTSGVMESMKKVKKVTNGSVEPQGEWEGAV
UniProt P46926: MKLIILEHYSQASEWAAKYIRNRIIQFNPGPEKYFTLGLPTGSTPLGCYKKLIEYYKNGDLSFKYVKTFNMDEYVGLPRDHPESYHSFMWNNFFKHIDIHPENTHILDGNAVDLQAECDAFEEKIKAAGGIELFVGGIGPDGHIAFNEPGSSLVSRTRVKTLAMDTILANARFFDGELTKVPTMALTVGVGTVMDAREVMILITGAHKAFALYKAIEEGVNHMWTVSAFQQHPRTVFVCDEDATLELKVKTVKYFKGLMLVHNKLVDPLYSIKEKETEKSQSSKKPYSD
UniProt O95249: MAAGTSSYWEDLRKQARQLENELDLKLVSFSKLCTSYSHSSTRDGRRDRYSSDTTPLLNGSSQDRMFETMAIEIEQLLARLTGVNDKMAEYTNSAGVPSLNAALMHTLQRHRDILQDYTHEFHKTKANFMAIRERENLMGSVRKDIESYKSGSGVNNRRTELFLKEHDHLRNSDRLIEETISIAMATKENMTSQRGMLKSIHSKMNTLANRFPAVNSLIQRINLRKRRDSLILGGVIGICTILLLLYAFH
UniProt Q7Z5G4, whole entry, looked up: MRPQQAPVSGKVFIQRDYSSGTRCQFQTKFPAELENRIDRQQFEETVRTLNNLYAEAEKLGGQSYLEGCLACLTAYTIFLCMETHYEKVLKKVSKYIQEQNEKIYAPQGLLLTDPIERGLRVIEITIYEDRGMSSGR
UniProt Q9BYB4: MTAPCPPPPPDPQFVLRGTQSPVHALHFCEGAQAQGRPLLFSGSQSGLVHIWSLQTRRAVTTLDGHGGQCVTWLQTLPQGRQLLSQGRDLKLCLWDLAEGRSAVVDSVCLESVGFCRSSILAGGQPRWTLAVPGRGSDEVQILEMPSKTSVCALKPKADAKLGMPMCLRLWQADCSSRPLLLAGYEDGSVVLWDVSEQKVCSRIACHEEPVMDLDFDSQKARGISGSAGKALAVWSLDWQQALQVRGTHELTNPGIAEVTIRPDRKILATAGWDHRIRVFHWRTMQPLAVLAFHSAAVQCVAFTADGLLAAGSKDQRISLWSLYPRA
UniProt Q9BRX5: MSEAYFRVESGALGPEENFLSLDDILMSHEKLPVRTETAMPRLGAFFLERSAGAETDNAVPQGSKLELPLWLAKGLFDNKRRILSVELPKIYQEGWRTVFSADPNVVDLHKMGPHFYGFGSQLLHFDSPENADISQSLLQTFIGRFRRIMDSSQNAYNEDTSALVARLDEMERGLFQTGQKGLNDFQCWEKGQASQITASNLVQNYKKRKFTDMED
UniProt Q7Z2K8: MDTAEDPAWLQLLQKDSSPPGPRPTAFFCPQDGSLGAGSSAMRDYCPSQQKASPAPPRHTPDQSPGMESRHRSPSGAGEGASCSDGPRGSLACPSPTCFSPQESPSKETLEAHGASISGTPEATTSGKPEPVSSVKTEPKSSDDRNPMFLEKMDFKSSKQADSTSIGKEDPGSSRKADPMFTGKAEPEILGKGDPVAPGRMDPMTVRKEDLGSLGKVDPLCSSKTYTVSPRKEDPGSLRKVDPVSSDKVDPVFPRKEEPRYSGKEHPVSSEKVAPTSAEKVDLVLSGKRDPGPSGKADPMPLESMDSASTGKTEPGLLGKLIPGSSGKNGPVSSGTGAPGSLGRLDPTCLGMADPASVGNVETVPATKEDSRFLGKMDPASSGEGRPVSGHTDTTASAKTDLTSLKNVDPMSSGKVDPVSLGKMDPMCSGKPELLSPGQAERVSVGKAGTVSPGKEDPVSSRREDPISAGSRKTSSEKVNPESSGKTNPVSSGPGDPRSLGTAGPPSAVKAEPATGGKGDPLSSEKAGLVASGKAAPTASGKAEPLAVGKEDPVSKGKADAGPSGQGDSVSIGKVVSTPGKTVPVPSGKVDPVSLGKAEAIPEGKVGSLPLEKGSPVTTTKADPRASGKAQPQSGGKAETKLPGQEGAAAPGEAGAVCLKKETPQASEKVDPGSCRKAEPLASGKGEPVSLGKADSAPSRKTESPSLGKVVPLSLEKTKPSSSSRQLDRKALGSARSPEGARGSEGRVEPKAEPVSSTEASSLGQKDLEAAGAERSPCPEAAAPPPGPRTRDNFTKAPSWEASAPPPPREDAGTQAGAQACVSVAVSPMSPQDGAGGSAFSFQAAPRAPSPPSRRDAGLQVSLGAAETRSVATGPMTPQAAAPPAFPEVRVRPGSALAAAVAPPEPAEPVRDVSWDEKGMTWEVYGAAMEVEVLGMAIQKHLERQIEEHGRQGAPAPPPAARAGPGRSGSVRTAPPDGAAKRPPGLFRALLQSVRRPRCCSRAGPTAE
UniProt P17174: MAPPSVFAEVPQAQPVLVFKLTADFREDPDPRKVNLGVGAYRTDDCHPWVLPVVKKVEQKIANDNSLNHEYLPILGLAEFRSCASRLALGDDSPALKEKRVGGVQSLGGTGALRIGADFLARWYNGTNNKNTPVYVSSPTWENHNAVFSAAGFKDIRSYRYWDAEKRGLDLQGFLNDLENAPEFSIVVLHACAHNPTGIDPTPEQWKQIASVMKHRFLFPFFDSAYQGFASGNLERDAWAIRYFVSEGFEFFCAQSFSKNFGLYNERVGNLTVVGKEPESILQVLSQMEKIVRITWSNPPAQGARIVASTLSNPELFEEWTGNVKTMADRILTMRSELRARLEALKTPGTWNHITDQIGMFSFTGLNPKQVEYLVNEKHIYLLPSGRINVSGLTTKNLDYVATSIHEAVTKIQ
UniProt Q53EU6: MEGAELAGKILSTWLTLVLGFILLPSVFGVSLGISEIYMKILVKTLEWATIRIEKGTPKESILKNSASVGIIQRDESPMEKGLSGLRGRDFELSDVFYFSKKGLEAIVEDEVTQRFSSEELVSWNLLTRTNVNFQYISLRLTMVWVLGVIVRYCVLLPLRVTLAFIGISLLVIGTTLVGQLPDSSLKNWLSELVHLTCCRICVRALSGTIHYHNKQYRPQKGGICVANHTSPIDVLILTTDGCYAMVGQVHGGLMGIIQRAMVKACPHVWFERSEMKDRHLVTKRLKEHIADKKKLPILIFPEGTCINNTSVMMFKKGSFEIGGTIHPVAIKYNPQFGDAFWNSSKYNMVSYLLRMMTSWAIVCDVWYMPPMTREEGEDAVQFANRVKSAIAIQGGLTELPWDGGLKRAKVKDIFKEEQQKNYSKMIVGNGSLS

Compound in the assay: CNCc1ccc(-c2[nH]c3cc(F)cc4c3c2CCNC4=O)cc1 [rucaparib]
Description: log2 fold change, soluble protein after heating vs DMSO (PISA); higher = thermal stabilisation; K562 cells, 10 uM, 30 min; active = over 0.2 and 3.5 SD of the protein, either way, in both replicates (recomputed). Put shortly:
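Quantification of soluble protein used TMTpro 16plex LC-MS/MS, with channel sums equalised. Samples were the supernatant after 21,000xg for 90 min of pooled aliquots from K562 cells (2×10^6 cells/mL) treated with 10 μM compound for 30 min, heated for 3 min over 48°C-58°C, and extracted in PBS with 0.5% NP-40 at 4°C. Values, from duplicates, describe thermal stability against control samples on a log2 fold-change scale.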
Regarding GNA13 (UniProt Q14344), the log2 fold change is inactive: 0.002.
As to GLB1L2 (UniProt Q8IW92), the log2 fold change was inactive: 0.062.
GK (UniProt P32189): the log2 fold change is inactive: -0.03.
Consider GPHN isoform 2 (UniProt Q9NQX3), for which the log2 fold change is inactive: 0.055.
The same measure for GNPNAT1 (UniProt Q96EK6): inactive: -0.023.
Next, GMPR (UniProt P36959): inactive: -0.014; GNMT (UniProt Q14749): inactive: -0.088; GMDS (UniProt O60547): inactive: -0.026.
GNPDA2 (UniProt Q8TDQ7): the log2 fold change is inactive: 0.058.
On to GPBP1L1 (UniProt Q9HC44), for which the log2 fold change was inactive: -0.02.
With GM2A (UniProt P17900), the log2 fold change is inactive: -0.128.
Consider GMPPA (UniProt Q96IJ6), for which the log2 fold change was inactive: 0.056.
As for GOLGA5 (UniProt Q8TBA6), the log2 fold change is inactive: 0.01.
The same measure for GRIPAP1 (UniProt Q4V328): inactive: 0.008.
As for GRPEL1 (UniProt Q9HAV7), the log2 fold change was inactive: -0.046.
The same measure for GOT2 (UniProt P00505): inactive: -0.033; for GNA12 (UniProt Q03113): inactive: -0.302; for GPR107 (UniProt Q5VW38): inactive: -0.019.
In the case of GNPDA1 (UniProt P46926), the log2 fold change was inactive: -0.021.
Next, GLO1 (UniProt Q04760): inactive: -0.092; GOSR1 (UniProt O95249): inactive: -0.101.
With GOLGA7 (UniProt Q7Z5G4), the log2 fold change is inactive: -0.026.
For the target GOSR2 isoform 2 (UniProt O14653), the log2 fold change is inactive: 0.082.
Regarding GNB1L (UniProt Q9BYB4), the log2 fold change was inactive: -0.073.
Regarding GLOD4 isoform 2 (UniProt Q9HC38), the log2 fold change was inactive: -0.071.
Next, GPATCH11 (UniProt Q8N954): inactive: -0.092; GLG1 isoform 2 (UniProt Q92896): inactive: -0.053.
The same measure for GPATCH1 (UniProt Q9BRR8): inactive: -0.161.
Next, GINS3 (UniProt Q9BRX5): inactive: -0.034.
In the case of GNE isoform 2 (UniProt Q9Y223), the log2 fold change is inactive: -0.034.
The same measure for GPRIN1 (UniProt Q7Z2K8): inactive: -0.01; for GOT1 (UniProt P17174): inactive: -0.047.
For GPBP1 isoform 2 (UniProt Q86WP2), the log2 fold change is inactive: -0.001.
In the case of GPS1 isoform 7 (UniProt Q13098), the log2 fold change was inactive: -0.008.
Regarding GMNN (UniProt O75496), the log2 fold change was inactive: -0.043.
For GPD2 (UniProt P43304), the log2 fold change was inactive: 0.002.
GPN2 (UniProt Q9H9Y4): the log2 fold change is inactive: 0.04.
Consider GPAT3 (UniProt Q53EU6), for which the log2 fold change is inactive: -0.009.

These data come from the supplement of paper PMC10849652.
